In PubChem BioAssay AID1794845 (National Center for Advancing Translational Sciences (NCATS), 2023):
Out of some 6,900 compounds screened, fewer than 10 were called active. Calls follow the shape of the dose curve; as a rule, active = well fitted curve in the direction sought with a large enough effect; inconclusive = small, poorly fitted or top-dose-only effect, or another doubt; inactive = no such curve, though single readings can be large or run the other way. The list shows a part of the results.

The chains behind the UniProt entries cited, without tags or fusion partners. Where a name states a change or a piece, a line headed by the entry shows the natural chain unless it says otherwise.
UniProt C7C422: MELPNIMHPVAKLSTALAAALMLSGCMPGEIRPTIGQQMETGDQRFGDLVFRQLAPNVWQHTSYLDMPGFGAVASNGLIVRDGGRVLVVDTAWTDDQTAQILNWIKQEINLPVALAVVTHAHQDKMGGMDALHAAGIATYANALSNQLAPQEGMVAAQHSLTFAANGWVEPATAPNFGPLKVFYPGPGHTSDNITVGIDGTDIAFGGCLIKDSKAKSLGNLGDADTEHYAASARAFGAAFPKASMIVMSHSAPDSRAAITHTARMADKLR

Each compound was assayed against Metallo-beta-lactamase type 2 (Klebsiella pneumoniae) (UniProt C7C422) (assay: qHTS to identify inhibitors of the New Delhi Metallo-beta-lactamase (NDM): primary screen against the NCATS Gemini Collection). Conditions: NDM-1 enzyme, meropenem hydrolysis, absorbance 300 nm; at 38.4 µM (top of the series) unless noted.
Outline: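 Meropenem hydrolysis (50 uM final) by 2 nM NDM-1 read as 300 nm absorbance after 30 min, following >30 min compound–enzyme preincubation in HEPES pH 7.0 with 1 uM ZnSO4 and 0.01% Tween20.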
Also: % of control where 0% means no effect.

Activity % (negative = inhibition), inactive:
COCCOc1ccc2c(n1)CCN(C(=O)c1ccc(OC)c(OC)c1)C2 17.7%
CCc1cccc(-n2nnnc2N2CCN(C(=O)NC(C)c3ccccc3)CC2)c1 (configuration not stated) -2.03%
Cc1ccccc1N1CCN(C(=O)c2nnn3c2COC(c2ccc(Cl)cc2)C3)CC1 (configuration not stated) 12.9%
Cc1nsc(NC(=O)N2CCC(CO)CC2)n1 3.13%
Cn1nccc1CN1CCCC2(COc3ccccc3C(=O)N2)C1 (configuration not stated) 15% [at 57.5 µM]
Cn1ccnc1C(=O)C1CCCN(Cc2cc(=O)c3cccc(Cl)c3[nH]2)C1 (configuration not stated) 6.2%
O=C([C@@H]1COCC(=O)N1Cc1ccccc1)N1CCN(Cc2ccc3c(c2)OCO3)CC1 9.99%
O=C(COc1ccc(F)cc1)N1CCCCC1c1nc(-c2cnccn2)n[nH]1 (configuration not stated) 10.6%
COCC(=O)N[C@@H]1CN(Cc2cccn2C)C[C@H]1CO 31%
O=C([C@@H]1C[C@H](F)CN1C(=O)NC1CCCCC1)N1CCc2ccccc2C1 8.12%
CN1C(=O)C(c2ccccc2)CC12CCN(S(=O)(=O)N(C)C)CC2 (configuration not stated) 13%
CCOc1ccccc1N1CCN(Cc2ccc(=O)n(CC)c2)CC1 10.2%
C[C@H]1CCCN1C(=O)c1nnc(COc2ccc(F)c(F)c2)n1-c1cccnc1 -1.14% [at 57.5 µM]
COC[C@H]1C[C@@H](NC(=O)c2cc(C)oc2C(F)(F)F)[C@H](O)[C@@H]1O -1.03% [at 57.5 µM]
O=C(Nc1ccccc1)N[C@H]1[C@H](O)[C@@H](N2CCCCC2)[C@@H]2OC[C@H]1O2 -1.96% [at 57.5 µM]
CN(C)S(=O)(=O)N1[C@@H]2CC[C@H]1CC(NC(=O)c1ccc(F)cc1)C2 (some centres not stated) -2.71%
O=S(=O)(c1ccccc1)N1CC(c2nc(Cc3cccnc3)no2)C1 2.92%
O=C(CCc1nnn2c1CN(C(=O)COc1ccc(F)cc1)CC2)N1CCCC1 0.261%
CCN(CC)CC[C@H]1CN(C(=O)C2CC2)CC[C@H]1CC(=O)O 41.7% [at 57.5 µM]
CCC(C)NC(=O)N1CCn2nnc(CCC(=O)N3CCOCC3)c2C1 (configuration not stated) 8.93%
CNC(=O)N1C[C@@H](CN(C)C)[C@H](NC(=O)c2ccsc2)C1 0.0852%
O=C(Cc1cccc(Cl)c1)NC1CCN(Cc2ccc(-c3ccsc3)cc2)C1 (configuration not stated) -4.98%
Cc1cnc(C2CCC2)n1CCNC(=O)c1nccn1C 5.25%
CC(C)(Cc1ccc(F)cc1)NC(=O)CC1C(=O)NCCN1Cc1ccoc1 (configuration not stated) 3.32%
CN(C)CC1(O)CCC2(CCN(C(=O)c3cccn3C)CC2)CC1 -1.58%
Cc1cccc(OCC(=O)N2CCC[C@H]2c2nc(-c3ccc(F)cc3)n[nH]2)c1 1.09%
COCC(=O)N[C@H]1C[C@@H](CO)N(Cc2sccc2C)C1 8.43%
CC(C)n1cnnc1C1CCCN1C(=O)Nc1ccccc1 (configuration not stated) 1.7%
Cn1nc(C2CC2)cc1NC(=O)C1CCCC1 -1.49% [at 57.5 µM]
O=C1NC2(CCN([S+](=O)([O-])c3ccccc3)C2)Oc2ccccc21 (configuration not stated) 6.06% [at 57.5 µM]
CCn1c(C2CCCNC2)nn(Cc2csc(-c3ccccc3)n2)c1=O (configuration not stated) 5.68%
Cc1ccc(-n2ccnc2-c2cc3n(n2)CCNC3)cc1N1CCCC1=O -2.82%
Fc1ccc(-c2cc(C3CCNCC3)[nH]n2)cc1 -3.5%
Cc1nnc2n1CCC(N(C)S(=O)(=O)c1cccnc1)CC2 (configuration not stated) -1.44%
Nc1nc2c(c(=O)[nH]1)CCN(C(=O)Cc1c[nH]c3ccccc13)C2 11.9%
CC(C)c1cc(C(=O)NCc2cccnc2Oc2cccc(C(F)(F)F)c2)n[nH]1 -1.34%
Cc1oc(C(O)c2ccccc2)nc1C(=O)Nc1ccncc1 (configuration not stated) -0.182% [at 57.5 µM]
O=c1[nH]c(C2CCN(Cc3ccc(-c4cccnc4)cc3)CC2)nc2ccc(F)cc12 -1.95%
CN(C)c1cc(N2CCCC(NS(C)(=O)=O)C2)ncn1 (configuration not stated) 2.95%
NC(=O)c1ccc(C(F)(F)F)nc1N1CCC(N2CCCC(O)C2)CC1 (configuration not stated) -1.45%
CC(C)c1noc(-c2cn(C3CCN(C(=O)C4(c5ccccc5)CC4)CC3)nn2)n1 -3.01%
COc1ccc(CC(=O)Nc2ccc3n(c2=O)C[C@H]2C[C@@H]3CN(C(=O)c3ccc(-c4ccccc4)cc3)C2)cc1 20.5%
O=C1NCCCCCCN(C(=O)CCc2ccccc2)[C@H]2CCCC[C@@H]12 24.6%
COc1ccc(CCCN2C(=O)O[C@@H]3CN(c4nc(C)cc(C)n4)C[C@@H]32)cc1 34.9%
CC(C)(C)n1cnc2cccnc21 -0.569% [at 77.1 µM]
Fc1ccccc1CN1CCNc2cnc(OCc3cccnc3)cc2C1 -1.18% [at 57.5 µM]
CNC(=O)C1(N2CCC[C@H]2C(=O)N(C)CCN(C)C)CCC1 13.7% [at 57.5 µM]
O=C(O)c1ccc(-c2nc3ccncc3[nH]2)cc1 21.5% [at 77.1 µM]
Cc1ccc(-c2nc3cnccn3c2NCCC(=O)O)cc1 3.5%
O=C(CN1CC2CC(C1)[C@H]1CCCC(=O)N1C2)N1CCCCC1 (some centres not stated) -0.229%
Cc1noc(-c2ccn3c(CNC(=O)COc4ccccc4)nnc3c2)n1 11.4%
COc1ccc(-c2nc3c(C)cccc3cc2CN2CC[C@@H](O)C2)cc1 1%
O=C(NCC1(COc2ccc(C(F)(F)F)cn2)C[C@@H](O)[C@@H](O)C1)c1cnccn1 (some centres not stated) 28.6%
CN1C(=O)CN(Cc2ccccc2C#N)C(=O)c2ccccc21 -0.818%
Cc1cc2nc3n(c(=O)c2n1CC(=O)NC1CCCCC1)CCCCC3 6.24%
O=C1CO[C@H]2CN(C3CCOCC3)C[C@H]2N1c1ccccc1 7.69% [at 57.5 µM]
CCCn1ncc(CN2CCCC23CCN(c2ncccn2)CC3)c1C 5.06%
O=C(NCc1ccc(Cl)cc1)c1cc(-c2ccc[nH]2)n[nH]1 3.06%
CN1C[C@H](NCc2nccn2C)CCC[C@@H](C(=O)NC2CCOCC2)CC1=O 11.5% [at 57.5 µM]
COC(=O)C1=C(C)NC(=O)NC1c1ccc(Cl)cc1 (configuration not stated) 51.2%
Cc1ccc(-c2cc3n(n2)CCCN(C(=O)CCN2C(=O)NC(C)(C)C2=O)C3)cc1C -11.6%
COC(=O)NC(C)C(=O)N1Cc2cnc(Cc3ccc(OC)cc3)nc2C1 (configuration not stated) -1.84%
c1ccc2c(c1)OCC(CCn1ccnc1-c1cc3n(n1)CCNC3)O2 (configuration not stated) 14.9%
O=C(Nc1cccc(C(F)(F)F)c1)N[C@H]1CO[C@H]2[C@@H]1OC[C@@H]2n1cc(-c2ccccc2)nn1 0.568%
CNC(=O)N1CCC(C2CCN(C(=O)c3ccc4ccccc4n3)C2)CC1 (configuration not stated) 15.3%
O=C1CC(Cc2ccccc2)CN1CC(=O)N1CCOC2(CCCC2)C1 (configuration not stated) 9.71%
COc1ccc(NC(=O)N[C@H]2[C@H](O)[C@@H](N(C)CCc3ccccn3)[C@@H]3OC[C@H]2O3)cc1 1.6% [at 57.5 µM]
CCNc1ncnc2sc3c(c12)CCN(C(=O)CCOC)C3 58.2%
CCC1(C(=O)O)CCCN(Cc2ccccc2)C1 (configuration not stated) -2.14%
CCC(CC)NC(=O)c1ccc2c(c1)N(S(C)(=O)=O)CC2 1.78%
CC(=O)N1CC2(CCN(CCCn3ccnc3C)CC2)CC1C(=O)O (configuration not stated) -0.0373%
N[C@H]1CN(C(=O)c2cccc(-n3cnnc3)c2)C[C@@H]1c1ccccc1 -3.3%
CC(C)c1ccc(S(=O)(=O)N2CCCN(C)c3ccccc32)cc1 5.5%
Cc1ccc(C(=O)N2CCCC2C(=O)N2CCCC2c2nc3ccncc3[nH]2)cc1 (configuration not stated) 0.286%
CC(C)(O)C#Cc1ccc(C(=O)N2CCOCC2CC(=O)O)o1 (configuration not stated) 12.4%
COc1ccccc1Oc1ncccc1CNCc1c(F)cccc1Cl 1.44%
CN(C1CCc2nn(CC3CC3)c(=O)n2CC1)S(=O)(=O)c1ccc(C#N)cc1 (configuration not stated) -11.6%
COc1cccc(CC(=O)N2CC[C@@H](NC(=O)c3cnccn3)[C@H](O)C2)c1 2.06%
CCNC(=O)[C@@H]1C[C@H](NC(=O)Cc2cccc(F)c2F)CN1C1CCCC1 2.67%
CCCS(=O)(=O)N1CCC(F)(c2nc(CC(C)C)no2)CC1 -9.88%
CN(C)Cc1nnc(C2CC(NC(=O)Cc3c(F)cccc3Cl)C2)n1C (configuration not stated) 7.26%
OC1CC(c2cc(N3CCC(c4nc5ccccc5[nH]4)CC3)ncn2)C1 (configuration not stated) 1.96%
CC(C)N(C(=O)c1ccccc1-c1ccc(CS(C)(=O)=O)cn1)C(C)C 10.1%
COCCN1C(=O)N(C)C(=O)C12CCN(CCCOc1ccc(F)cc1)C2 (configuration not stated) -0.278%
COc1ncccc1-c1cc(-c2cn[nH]c2)c2cncn2c1 18.6% [at 77.1 µM]
COc1cccc(C(=O)NC2CCN(c3nnc4ccccn34)CC2)c1 1.51%
C1=C(c2cc(-c3ccncc3)cn3cncc23)CCOC1 6.7% [at 77.1 µM]

Structures above with a furan ring, fused or not, in the order listed:
Activity % (negative = inhibition), inactive:
COC[C@H]1C[C@@H](NC(=O)c2cc(C)oc2C(F)(F)F)[C@H](O)[C@@H]1O -1.03% [at 57.5 µM]
CC(C)(Cc1ccc(F)cc1)NC(=O)CC1C(=O)NCCN1Cc1ccoc1 (configuration not stated) 3.32%
CC(C)(O)C#Cc1ccc(C(=O)N2CCOCC2CC(=O)O)o1 (configuration not stated) 12.4%
